According to patent US7964624B1, “Inhibitors of serine proteases” (priority 2005, dated 2011):
At least one read-out could not be matched to a standard name with certainty. Where a SMILES comes first, the peptide text is derived from it. [ ]: non-standard residue; d: D form. Abu = CC[C@H](N)C(=O)O

Legend:
[1] = molecular target: T1, HCV NS3 protease domain (Hepatitis C virus genotype 1b, UniProt Q9WMX2); experiment: Determination of Km and Vmax for peptide substrates; type: biochemical; conditions: enzyme NS3 protease domain; peptide substrate varied 3-200 μM; Michaelis-Menten fit
T1 construct: The first 181 amino acids of NS3 (residues 1027-1207 of the viral polyprotein); hexa-histidine (C); made in house; host or cells: E. coli BL21/DE3 pLysS
Description: This assay is a modification of that described by Landro, et al. (Landro J A, Raybuck S A, Luong Y C, O'Malley E T, Harbeson S L, Morgenstern K A, Rao G and Livingston D L. Biochemistry 1997, 36, 9340-9348), and uses a peptide substrate (NS5AB), based on the NS5A/NS5B cleavage site for genotype 1a HCV. The substrate stock solution (25 mM) was prepared in DMSO containing 0.2 M DTT and stored at −20° C. A synthetic peptide cofactor (KK4A) was used as a substitute for the central core region of NS4A. The reaction was performed in a 96-well microtiter plate format using 25 ηM to 50 ηM HCV NS3 protease domain in buffer containing 50 mM HEPES pH 7.8, 100 mM NaCl, 20% glycerol, 5 mM DTT and 25 μM KK4A. The final DMSO concentration was no greater than 2% v/v. […]
The SMSY product was separated from substrate and KK4A using a microbore separation method. […] The SMSY product peak was quantitated using the data collected at […].
To determine the kinetic parameters Km and Vmax, the HCV NS3 protease domain or HCV NS3•4A was reacted with peptide substrate under the assay conditions described above. […] The ratio of the product peak area (as determined by reverse phase HPLC) to the reaction time yielded a rate of enzyme catalyzed hydrolysis. […] The value of kcat was determined from Vmax using the nominal protease concentration and a fully cleaved substrate peptide as an instrument calibration standard.

[2] = molecular target: T2, HCV NS3•4A (Hepatitis C virus genotype 1a, UniProt P27958); experiment: as above; type: biochemical, HCV sub-type strain 1a; conditions: enzyme NS3•4A; peptide substrate varied 3-200 μM; Michaelis-Menten fit
T2 construct: hexa-histidine (N); made in house; host or cells: Sf9 insect cells (baculovirus, pVL1392)
Description: This assay follows the cleavage of a peptide substrate by full-length hepatitis C viral protein NS3•4A. One of three peptide substrates based on the NS5A/NS5B cleavage site for genotype 1a HCV is used to measure enzyme activity. All substrate stock solutions (25 mM) were prepared in DMSO containing 0.2M DTT and stored at −20° C. A synthetic peptide cofactor (NS4A Peptide) was used to supplement NS4A. Peptide sequences are shown below. The hydrolysis reaction was performed in a 96-well microtiter plate format using 100 ηM to 125 ηM HCV NS3•4A in buffer containing 50 mM HEPES pH 7.8, 100 mM NaCl, 20% glycerol, 5 mM DTT and 25 μM NS4A Peptide. The final DMSO concentration was no greater than 2% v/v. […]
Enzymatic activity was assessed by separation of substrate and products by reverse phase HPLC. The instrument used was a Agilent 1100 with a G1322A degasser, either a G1312A binary pump or a G1311A quaternary pump, a G1313A autosampler, a G1316A column thermostated chamber, a G1321A fluorescence detector and a G1315A diode array detector. […] The C-terminal product peak (NH2-SMSY-COOH) was quantitated using the absorbance data collected at 210 ηm. […] The C-terminal product peak (NH2-SMSYT-Asp(EDANS)-KKK-COOH) was quantitated using the fluorescence data collected at 350 ηm excitation/490 ηm emission. […]

## CC[C@H](NC(=O)[C@@H](NC(=O)[C@@H](NC(=O)[C@H](CC(=O)O)NC(=O)[C@@H](N)CCC(=O)O)C(C)C)C(C)C)C(=O)N[C@@H](CS)C(=O)N[C@@H](CO)C(=O)N[C@@H](CCSC)C(=O)N[C@@H](CO)C(=O)N[C@@H](Cc1ccc(O)cc1)C(=O)O [DomainNS5AB] (H-EDVV[Abu]CSMSY-OH)
[1]
  kcat/Km: 30000 M⁻¹ s⁻¹

## CC[C@H](NC(=O)[C@@H](NC(=O)[C@@H](NC(=O)[C@H](CC(=O)O)NC(=O)[C@@H](N)CCC(=O)O)C(C)C)C(C)C)C(=O)N[C@@H](CS)C(=O)N[C@@H](CO)C(=O)N[C@@H](CCSC)C(=O)N[C@@H](CO)C(=O)N[C@@H](Cc1ccc(O)cc1)C(=O)O [NS5AB, NH2-EDVV-(alpha)Abu-CSMSY-COOH] (H-EDVV[Abu]CSMSY-OH)
[2]
  kcat/Km: 7900 M⁻¹ s⁻¹
